This passage reports binding results from doi:10.1101/2024.12.18.629111 (bioRxiv, 2024).

Test in all cases: pull-down
Assay [1] deals with T1, CBP-Ebs1 (aa 1-591) (S. cerevisiae) (UniProt Q03466).
T1 sequence: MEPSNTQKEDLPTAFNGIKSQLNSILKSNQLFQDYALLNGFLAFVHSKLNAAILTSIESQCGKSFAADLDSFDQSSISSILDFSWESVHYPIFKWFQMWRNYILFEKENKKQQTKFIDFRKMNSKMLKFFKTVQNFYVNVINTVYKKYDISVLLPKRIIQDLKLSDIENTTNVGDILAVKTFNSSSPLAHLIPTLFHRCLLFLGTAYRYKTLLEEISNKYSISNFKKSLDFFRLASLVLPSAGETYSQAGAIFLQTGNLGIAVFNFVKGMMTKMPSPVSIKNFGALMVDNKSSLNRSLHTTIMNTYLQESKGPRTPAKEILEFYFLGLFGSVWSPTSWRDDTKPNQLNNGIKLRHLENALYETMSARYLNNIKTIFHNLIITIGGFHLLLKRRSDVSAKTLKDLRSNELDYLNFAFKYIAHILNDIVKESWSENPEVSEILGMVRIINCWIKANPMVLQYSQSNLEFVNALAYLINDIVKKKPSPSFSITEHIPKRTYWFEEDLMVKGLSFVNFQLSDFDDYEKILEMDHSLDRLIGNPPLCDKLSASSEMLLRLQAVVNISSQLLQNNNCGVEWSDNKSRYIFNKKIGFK

The target in assay [2] is T2, CBP-Upf1-Ct (S. cerevisiae) (UniProt P30771).
T2 sequence: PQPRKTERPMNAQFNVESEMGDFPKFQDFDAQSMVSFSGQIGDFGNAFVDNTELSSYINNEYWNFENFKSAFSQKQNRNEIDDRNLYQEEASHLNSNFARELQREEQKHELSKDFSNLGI

Assay [3] has as its target T3, CBP-Nmd4-His (S. cerevisiae) (UniProt Q12129).
T3 sequence: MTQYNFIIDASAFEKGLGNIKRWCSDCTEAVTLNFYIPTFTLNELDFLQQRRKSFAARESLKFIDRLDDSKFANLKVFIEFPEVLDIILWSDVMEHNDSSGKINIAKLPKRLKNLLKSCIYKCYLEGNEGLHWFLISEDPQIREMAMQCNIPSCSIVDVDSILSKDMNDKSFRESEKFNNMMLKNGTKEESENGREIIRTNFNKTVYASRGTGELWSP

No constants are given. Whether binding was seen depends on the method and setting. Some results given as binding are weak or reduced against the parent protein; the word gives no strength. Where a sequence is shown, tags or fusion partners need not be part of it.

B1: HisZZ-Nmd4 (protein, UniProt Q12129 1-218)
chain: MTQYNFIIDASAFEKGLGNIKRWCSDCTEAVTLNFYIPTFTLNELDFLQQRRKSFAARESLKFIDRLDDSKFANLKVFIEFPEVLDIILWSDVMEHNDSSGKINIAKLPKRLKNLLKSCIYKCYLEGNEGLHWFLISEDPQIREMAMQCNIPSCSIVDVDSILSKDMNDKSFRESEKFNNMMLKNGTKEESENGREIIRTNFNKTVYASRGTGELWSP
Regarding B1, the binding entry in assay [1] is on record as “binds weakly”.

B2: TS-Nmd4-His (natural protein, S. cerevisiae, UniProt Q12129 1-218, looked up)
chain: MTQYNFIIDASAFEKGLGNIKRWCSDCTEAVTLNFYIPTFTLNELDFLQQRRKSFAARESLKFIDRLDDSKFANLKVFIEFPEVLDIILWSDVMEHNDSSGKINIAKLPKRLKNLLKSCIYKCYLEGNEGLHWFLISEDPQIREMAMQCNIPSCSIVDVDSILSKDMNDKSFRESEKFNNMMLKNGTKEESENGREIIRTNFNKTVYASRGTGELWSP
Turning to B2, in assay [2], the binding entry is reported as “no binding”.

B3: GST-Ebs1 (aa 1-591) (domain or fragment, S. cerevisiae, UniProt Q03466 1-591, looked up)
chain: MEPSNTQKEDLPTAFNGIKSQLNSILKSNQLFQDYALLNGFLAFVHSKLNAAILTSIESQCGKSFAADLDSFDQSSISSILDFSWESVHYPIFKWFQMWRNYILFEKENKKQQTKFIDFRKMNSKMLKFFKTVQNFYVNVINTVYKKYDISVLLPKRIIQDLKLSDIENTTNVGDILAVKTFNSSSPLAHLIPTLFHRCLLFLGTAYRYKTLLEEISNKYSISNFKKSLDFFRLASLVLPSAGETYSQAGAIFLQTGNLGIAVFNFVKGMMTKMPSPVSIKNFGALMVDNKSSLNRSLHTTIMNTYLQESKGPRTPAKEILEFYFLGLFGSVWSPTSWRDDTKPNQLNNGIKLRHLENALYETMSARYLNNIKTIFHNLIITIGGFHLLLKRRSDVSAKTLKDLRSNELDYLNFAFKYIAHILNDIVKESWSENPEVSEILGMVRIINCWIKANPMVLQYSQSNLEFVNALAYLINDIVKKKPSPSFSITEHIPKRTYWFEEDLMVKGLSFVNFQLSDFDDYEKILEMDHSLDRLIGNPPLCDKLSASSEMLLRLQAVVNISSQLLQNNNCGVEWSDNKSRYIFNKKIGFK
With B3, the binding result in assay [3] is listed as “binds weakly”.
